Laboratory results: PubChem BioAssay AID652272 (Drosophila RNAi Screening Center, 2013)
In all, the deposit lists about 21,000 reagents; this is an unselected part of those that have a named target and a result. Of all reagents, 503 (2.4%) are marked active. 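Raw plate light values, not normalised; calls rest on replicate z-scores that were not deposited; hits include reporter decreases as well as increases.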 Unmarked entries are inactive. A plus sign joins genes that one reagent is predicted to hit. Not given: the amount of reagent, the time to read-out.

- Screen: 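Genome-wide knock-down search for components of Hedgehog signalling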 (primary screen)
- Cell system: Drosophila clone 8 (Cl8) cells
- Reagent: long dsRNA against Drosophila genes
- Read-out: 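Firefly light from a Hedgehog-responsive ptc promoter reporter and Renilla reference light, both read on a plate reader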
- Reading the numbers: firefly Hh reporter signal: higher = more ptc reporter light; Renilla reference signal: higher = more Renilla control light
- Call rule: 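Hit when the z-score averaged over two replicates is under -2 or over +3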
- Meaning of the calls: active = hit: reporter lowered or raised; inactive = not a hit

| gene | amplicon | firefly Hh reporter signal, replicate 1 | firefly Hh reporter signal, replicate 2 | firefly Hh reporter signal, replicate 3 | Renilla reference signal, replicate 1 | Renilla reference signal, replicate 2 |
| --- | --- | --- | --- | --- | --- | --- |
| Vps52 | DRSC03050 | 69592 | 50517 | – | 1232 | 4514 |
| JMJD6 | DRSC15787 | 1.13e5 | 94074 | – | 5290 | 3643 |
| cathD | DRSC07588 | 84551 | 62491 | – | 2073 | 4584 |
| CG6055 | DRSC02923 | 1.52e5 | 66624 | – | 3815 | 6491 |
| Jra | DRSC07447 | 1.19e5 | 77065 | – | 4299 | 3680 |
| APC4 | DRSC18360 | 1.07e5 | 1.02e5 | – | 2907 | 2336 |
| CG10550 | DRSC14251 | 67860 | 1.22e5 | – | 1552 | 2899 |
| CG8520 | DRSC07206 | 84200 | 58473 | – | 3383 | 2418 |
| CG16837 | DRSC04283 | 94588 | 61633 | – | 2036 | 4049 |
| TTLL4B | DRSC00636 | 42188 | 64512 | – | 2513 | 3098 |
| CG1440 | DRSC17915 | 1.35e5 | 3.05e5 | – | 4166 | 11632 |
| CG18536 | DRSC06763 | 97664 | 63552 | – | 2755 | 4356 |
| CG15865 | DRSC19733 | 76901 | 2.89e5 | – | 2907 | 11232 |
| tld | DRSC17084 | 5.58e5 | 98059 | – | 27128 | 2621 |
| SLIRP2 | DRSC16363 | 1.14e5 | 1.11e5 | – | 4530 | 2860 |
| CG34253 + lncRNA:CR32194 | DRSC09531 | 1.91e5 | – | – | 5383 | – |
| CG16782 | DRSC18118 | 93478 | 2.53e5 | – | 2628 | 8593 |
| Grip | DRSC17940 | 28253 | 28340 | – | 1008 | 1625 |
| Grip | DRSC18395 | 57666 | 1.50e5 | – | 2240 | 6023 |
| CG18545 | DRSC15343 | 1.02e5 | 1.27e5 | – | 3467 | 4000 |
| yps | DRSC11411 | 44842 | 40580 | 32277 | 6084 | 2981 |
| CG7365 | DRSC10824 | 1.31e5 | 84112 | – | 4422 | 2563 |
| CheB38a | DRSC03205 | 80278 | 5.71e5 | 32391 | 2736 | 33139 |
| Acox57D-d | DRSC04561 | 1.32e5 | 66896 | – | 4874 | 2521 |
| CG16721 | DRSC18113 | 1.26e5 | 1.30e5 | – | 2546 | 3195 |
| CG11000 | DRSC12082 | 1.97e5 | – | – | 4228 | – |
| CG11000 | DRSC12158 | 52195 | 1.31e5 | – | 1933 | 3676 |
| CG15336 | DRSC18019 | 85824 | 1.78e5 | – | 3018 | 6426 |
| Drgx | DRSC00278 | 1.32e5 | 62924 | – | 3163 | 5674 |
| Drgx | DRSC00537 | 1.48e5 | 62893 | – | 3772 | 5952 |
| gry | DRSC08028 | 1.13e5 | 2.81e5 | – | 4056 | 11808 |
| gry | DRSC08518 | 74000 | 76571 | – | 3986 | 3018 |
| GstO3 | DRSC10710 | 31975 | 59434 | – | 3424 | 4000 |
| Scsalpha1 | DRSC08698 | 1.16e5 | 1.04e5 | – | 4811 | 3979 |
| Iris | DRSC00663 | 1.12e5 | 51877 | – | 4312 | 2423 |
| CG12861 | DRSC06201 | 1.51e5 | 74087 | – | 3802 | 5963 |
| Tmx3 | DRSC10471 | 95205 | 70032 | – | 4528 | 2300 |
| CG4619 | DRSC02764 | 94371 | 61857 | – | 4073 | 2380 |
| BHD | DRSC11017 | 1.51e5 | 1.30e5 | – | 6544 | 5037 |
| Ir64a | DRSC09759 | 52016 | 61659 | – | 6023 | 3770 |
| Ir64a | DRSC09760 | 55105 | 50640 | – | 6195 | 3600 |
| dind | DRSC16294 | 80509 | 66328 | – | 3402 | 2746 |
| CG5013 | DRSC15695 | 70928 | 94555 | – | 1564 | 6428 |
| CG15140 | DRSC02440 | 1.02e5 | 64146 | – | 2320 | 5657 |
| rasp | DRSC08191 | 91580 | 27817 | – | 2833 | 364 |
| PIG-Q | DRSC19138 | 7.50e5 | 2.49e5 | – | 40645 | 5412 |
| Lamtor2 + CG30120 | DRSC05726 | 1.19e5 | 2.18e5 | – | 3376 | 8577 |
| Lamtor2 + CG30120 | DRSC06922 | 1.00e5 | 65767 | – | 3063 | 5116 |
| Prp31 | DRSC10735 | 84933 | 36477 | – | 4524 | 1652 |
| spartin | DRSC12187 | 1.55e5 | 1.77e5 | – | 5616 | 5377 |
| CG4617 | DRSC18377 | 60857 | 60329 | – | 1652 | 1579 |
| PK2-R2 | DRSC16448 | 76944 | 95204 | – | 2514 | 2586 |
| eIF3j | DRSC06107 | 95832 | 43011 | – | 3801 | 1553 |
| neur + asRNA:CR31429 | DRSC17013 | 97317 | 98938 | – | 3628 | 3687 |
| Or94b | DRSC16773 | 4.31e5 | 73430 | – | 21446 | 2160 |
| Lsp1gamma | DRSC08672 | 69197 | 62819 | – | 3340 | 2592 |
| Uqcc1 + CG9948 | DRSC09690 | 43635 | 57035 | – | 3589 | 3740 |

Targets above whose target name begins with I or i:
| gene | amplicon | firefly Hh reporter signal, replicate 1 | firefly Hh reporter signal, replicate 2 | firefly Hh reporter signal, replicate 3 | Renilla reference signal, replicate 1 | Renilla reference signal, replicate 2 |
| --- | --- | --- | --- | --- | --- | --- |
| Iris | DRSC00663 | 1.12e5 | 51877 | – | 4312 | 2423 |
| Ir64a | DRSC09759 | 52016 | 61659 | – | 6023 | 3770 |
| Ir64a | DRSC09760 | 55105 | 50640 | – | 6195 | 3600 |
